For at least one compound, name, drawing or mass did not settle the structure.
Test: Particle size of inkjet spray-dried nanoparticles by dynamic light scattering (DLS)
Format: physicochemical

CC(C)OC(=O)C(C)(C)Oc1ccc(C(=O)c2ccc(Cl)cc2)cc1 [fenofibrate]
particle size (Brij 76, ratio 1:2, inkjet spray-dryer, FIG. 3): 287.3 nm
particle size (vitamin E TPGS, ratio 1:2, inkjet spray-dryer, FIG. 4): 192.8 nm
